The target of the assay is Serine-arginine rich splicing factor 3 (SRSF3) (human) (UniProt P84103). In words: co-IP; LIM1215 cells expressing SRSF3-GFP or GFP only; immunoprecipitation with an anti-GFP antibody, Western blot detection with an anti-SRSF3 antibody.

No constants are given. Whether binding was seen depends on the method and setting. In cells and extracts the contact can be indirect. Some results given as binding are weak or reduced against the parent protein; the word gives no strength.

B1: Serine-arginine rich splicing factor 3 (SRSF3) (protein, UniProt P84103 1-164)
chain: MHRDSCPLDCKVYVGNLGNNGNKTELERAFGYYGPLRSVWVARNPPGFAFVEFEDPRDAADAVRELDGRTLCGCRVRVELSNGEKRSRNRGPPPSWGRRPRDDYRRRSPPPRRRSPRRRSFSRSRSRSLSRDRRRERSLSRERNHKPSRSFSRSRSRSRSNERK
Turning to B1, the binding result is listed as “binds”.

Values taken from PMC10328067.
